In publication PMC6529632, “Robust Stoichiometry of FliW-CsrA Governs Flagellin Homeostasis and Cytoplasmic Organization in Bacillus subtilis” (mBio, 2019):
Results are given in words; binding and its absence hold for the method and conditions named. Some entries that bind do so weakly or less than the wild type. Tags and fused reporters may be left off the sequences shown.

Molecular target: T1, CsrA^N55D-strep (monomer co-expressed with CsrA^WT-His6) (Bacillus subtilis) (UniProt P33911)
T1 sequence: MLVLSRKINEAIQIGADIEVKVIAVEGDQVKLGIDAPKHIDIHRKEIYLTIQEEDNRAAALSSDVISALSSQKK
Assay: sequential affinity co-purification with SDS-PAGE; both chains co-expressed from one vector in E. coli; Ni-NTA by the His6 tag, then Strep-Tactin by the Strep tag, then size exclusion; Coomassie-stained denaturing gel, densitometry

B1: CsrA^WT-His6 (monomer co-expressed with CsrA^N55D-strep) (natural protein, Bacillus subtilis, UniProt P33911 1-74, looked up)
chain: MLVLSRKINEAIQIGADIEVKVIAVEGDQVKLGIDAPKHIDIHRKEIYLTIQEENNRAAALSSDVISALSSQKK
notes: CsrA of Bacillus subtilis, wild type, amplified from pCSB9; Same chain as in m1 and m3; Written as a single chain for the pair row of the heterodimer; also called CsrA-His6; source: Rosetta-gami E. coli, co-expressed with CsrA^N55D-strep from dual-expression vector pRO76
binding: binds
